From PubChem BioAssay AID1347423 (Functional Genomics Laboratory (NCATS/FGL), 2020)
In all, about 52,000 sequences went through this assay and about 210 (0.4%) were called active.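 Rule for the calls: active = gene whose silencing raises cell survival under the drug, median off-target-corrected z-score across its silencing RNAs 2 or more; inactive = the rest.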 Some of the results follow.

Test: Resistance to Poly (ADP-Ribose) Polymerase inhibitor: Gene Identification via Genome-wide siRNA Screen
Details: mouse BRCA2 R2336H ES cells, olaparib, CellTiter-Glo viability; hits give high values
Method in brief: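 Genome-wide siRNA screen (3 siRNAs/gene, 20 nM) in mouse ES cells carrying hypomorphic BRCA2 R2336H; olaparib 500 nM added 48 h post-transfection, CellTiter-Glo viability 72 h later. Normalized to plate-median negative control; MAD z-scores, gene median, seed-adjusted.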

| Sequence | z-score |
| --- | --- |
| GCAUCUCGGAAGAUCCUGUTT against Vip | inactive: -0.34 |
| UCCAGACUGUACCAUUCCATT against Mesp1 | inactive: -0.673 |
| GCCUCUUUGGGUUCGUUUCTT against Opn3 | inactive: -0.851 |
| GGUGUACCAGAAUGAGAAGTT against Akr1b3 | inactive: -0.791 |
| GCUAGUCAGAAGAAGUACUTT against Arpm2 | inactive: -0.561 |
| GGAAGGAAGAGAAUAAGCGTT against Papd4 | inactive: 0.536 |
| GGACUAUGACCCAUAUAGUTT against Zc3hdc8 | inactive: -0.584 |
| GGAAUUUAGUGUGCGGUCGTT against Oxa1l | inactive: 0.74 |
| CCCAGGAAAAACCGUCAACTT against A530094I17Rik | inactive: 1.86 |
| GCCUUAACUAUAGUCCAGATT against Scn7a | inactive: -1.59 |
| CGCUGAAAGUGAACGUAGGTT against Kcnv2 | inactive: 0.713 |
| GGACCAAUUGGAUCCUUUUTT against Olfr1340 | inactive: -0.205 |
| GGUGACCAAGAUGCUGUUUTT against Gpr66 | inactive: 1.21 |
| GCCAGUAUUGUGCAACAAGTT against Klrk1 | inactive: 2.17 |
| GGACCAGUUCUGGUUCAGATT against Fmn2 | inactive: 0.168 |
| GAGAAACUAUGGCUGAAAATT against Klk6 | inactive: 0.52 |
| GGAUAAAUUUCAAGAUGUGTT against Birc1e | inactive: -1.61 |
| CCACUCUAAUGAUGUUUUUTT against 1200006F02Rik | inactive: 0.281 |
| GCGGAGAGAUCAAAGCGAUTT against Iltifb | inactive: -0.616 |
| GGCUUUGAUAUACCUUGAATT against Pvt1 | inactive: -0.986 |
| GGCUUAUGUAUGUAAACACTT against 2810426N06Rik | inactive: 1.24 |
| GGACAAGAAGAAAGAAAAGTT against Tegt | inactive: -0.517 |
| CCGAGUUUGCCUUCUAUCCTT against Hoxb13 | inactive: 0.587 |

| Sequence | z-score |
| --- | --- |
| CGACCACACCCAAAACACUTT against Ddx26 | inactive: 1.15 |
| CCAAACUAUAGUGAACUUATT against Irak4 | inactive: 0.608 |
| GGAGGAAGUGUUUUUCUCCTT against LOC545925 | inactive: -0.0218 |
| GCCAUCACUGAAUUAAGAUTT against Pcdhb11 | inactive: -0.427 |
| GGACAAACAGCUUCAAGAUTT against Psmd2 | inactive: -2.75 |
| CCACAUCUCAUGUGAAACCTT against Olfr517 | inactive: 0.922 |
| GGACCAUACUGGAUAAGGATT against Ccl12 | inactive: -1.4 |
| GGAACAAACUUGAACUCUCTT against 2610019N13Rik | inactive: -2.06 |
| GGUGAACAGAAUAUAUGGATT against Olfr629 | inactive: 1.06 |
| CCUUCACACUUAAUAGAGGTT against Ifitm3 | inactive: -0.5 |
| GGUGAACAGAGCUCAUAAUTT against Specc1 | inactive: 0.344 |
| GGAAGAAACCUCUUCGAGATT against Hmg20a | inactive: 0.655 |
| GGAAAAAUUGACCAAAGGATT against 1200011I18Rik | inactive: -2.01 |
| GGGUCUACAAUCACCAGACTT against Wnt10a | inactive: 2.06 |
| GGAAACAAGAUUACAUCAATT against Adamts2 | inactive: 0.527 |
| CCUCGUAUUUAUACUCAGUTT against Gpr18 | inactive: 0.757 |
| CAUUGAAUUCCUGCUCUCCTT against Defcr-rs2 | inactive: -0.164 |
| GCCCGCACAAUCGUACUUUTT against Ccl28 | inactive: 0.889 |
| GGACAAUGAAGGAAUUGAUTT against Mdm4 | inactive: 0.424 |
| GGAAUGUUGUUCUCAAGAUTT against Ddhd1 | inactive: 1.49 |
| GGUACUAAACUUCUUCAACTT against Rsu1 | inactive: -0.018 |
| GGCUUUUUCCUCUAUCUGATT against Thoc1 | inactive: -2.97 |
| GGUCCAGUCAGGAAACACATT against 4933425F06Rik | inactive: -0.692 |

| Sequence | z-score |
| --- | --- |
| GGGUUAUCCAAGUCUUUUCTT against Olfr617 | inactive: 0.87 |
| GGAUGGCUCCAUUGUCAUATT against Mpz | inactive: -0.714 |
| GGAACUUAAUCACCCUAAUTT against Cdk2 | inactive: -1.15 |
| GCCUGUUUAGAAUUAGAGATT against 9930023K05Rik | inactive: 0.647 |
| GCUGAAGGAGAAAUUCACCTT against Ptgds | inactive: 1.44 |
| GGCAUGAUUAUUGUGUUUGTT against Abcb11 | inactive: 0.00178 |
| GCCGUUAACCUCAAGUUUUTT against Lrrn3 | inactive: -0.0628 |
| CCUCCCUAUUCUAUGGUAGTT against Prss34 | inactive: -0.23 |
| GGCAUUUGUAAUUCCAGUUTT against 4732415M23Rik | inactive: -1.29 |
| CCUAACCUGAAAGUUCCAGTT against 2810423G08Rik | inactive: 0.633 |
| GCAUGUGUUACAUAGAAAUTT against Deb1 | inactive: -1.68 |
| CGAAAAUCAAGCGGAAUUUTT against BC065120 | inactive: -0.715 |
| GCAAGAACUUCGCUGCUCUTT against 1500032L24Rik | inactive: 0.915 |
| CCUGUUUCUGACCUAAUACTT against Syn1 | inactive: -1 |
| GGGUAGGUUGUGUUUGCAUTT against Dmn | inactive: 1.46 |
| CCAACGGAUGCUCAAACAATT against Aspscr1 | inactive: 1.89 |
| GGAGAAGAAGUCCAAAGGATT against Tnfaip2 | inactive: -1.05 |
| GGCCAUCAGAUAAAAGUUGTT against Rutbc2 | inactive: 0.378 |
| GGCACAAAGGCAGUUAUUCTT against 1110049G11Rik | inactive: 0.847 |
| GGUAUUGAAUACAGGAAUUTT against C330049O21Rik | inactive: -1.15 |
| CCGUUAGGUUUUUAUCCAATT against Ube2b | inactive: 0.368 |

Part of the list above in a different format.
Sequence	z-score
GGGUUAUCCAAGUCUUUUCTT against Olfr617	inactive: 0.87
GGAUGGCUCCAUUGUCAUATT against Mpz	inactive: -0.714
GGAACUUAAUCACCCUAAUTT against Cdk2	inactive: -1.15
